# Data as given in PubChem BioAssay AID2685 (National Center for Advancing Translational Sciences (NCATS), 2010).
# The list shows a part of the results. Shown are side measurements of this screen, not its main read-out; they come without a call. Most of these compounds were active or inconclusive in the main read-out, so they are no random draw. Words in brackets tell the shape of the fitted curve; partial curves, single points and poor fits give uncertain potencies.
# Test: qHTS Assay for Lipid Storage Modulators in Drosophila S3 Cells;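 on cell number change: cells counted by Cell Tracker Red CMTPX staining in the red channel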
# Conditions: BODIPY lipid droplet fluorescence, 18-24 h; for cell number change: measured here: cell count max response, cells fed with added oleic acid
# Procedure, shortened: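 Laser-scanning cytometry quantifies lipid droplet accumulation (500–530 nm total intensity; droplet/cell object ratio) in oleic acid-fed (400 uM added) Drosophila S3 cells treated with a concentration series. 20 uM Triacsin C defined 100% inhibition.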
# [1] = measured here: lipid fluorescence (Fed channel) AC50, cells fed with added oleic acid
# [2] = measured here: cell number channel AC50, cells fed with added oleic acid
SMILES,cell number change,AC50 [1],AC50 [2]
COC(=O)c1cn(Cc2ccccc2C)nn1,12%,"29.1 µM [rising, single point]",
COc1ccc(N(CC(=O)Nc2ccc(C)c(C)c2)S(=O)(=O)c2c(C)noc2C)cc1,-14.6%,"1.84 µM [falling, partial curve, poor fit]",
Cn1c(-c2ccc(C(F)(F)F)cc2)cc2onc(-c3ccccc3)c2c1=O,-13%,"1.64 µM [rising, partial curve]",
CC(C)(C)NS(=O)(=O)c1ccc(CCC(=O)N2CCCCC2)cc1,-1.39%,"6.51 µM [falling, single point]",
Cc1csc(NC(=O)c2nc3nc(C)cc(C)n3n2)n1,-37.7%,"0.366 µM [falling, full curve]","20.6 µM [falling, single point]"
Cc1ccccc1C(=O)NC1CCCN(Cc2ccccc2F)C1 (stereo not given),21.6%,"8.2 µM [rising, partial curve]",
Cc1ccc(NC(=O)CCn2nc(C)cc2C)cc1,55.1%,"29.1 µM [rising, single point]","29.1 µM [rising, single point]"
CC(C)NC(=O)NC(=O)COC(=O)c1ccccc1O,-14.6%,"4.61 µM [falling, partial curve, poor fit]",
COCc1c(C(=O)N/N=C(\C)c2ccc(Cl)s2)nnn1-c1nonc1N,-28.6%,,
COc1ccc(S(=O)(=O)c2nnn(-c3cccc(OC)c3)c2N)cc1,60.5%,,
CCc1cc(=O)oc2cc(C)cc(OCC(=O)N3CCC[C@@H]3C(=O)O)c12,13.9%,"29.1 µM [rising, partial curve, poor fit]",
O=C(COc1ccc2ccccc2c1Br)Nc1ncn[nH]1,32.5%,,
CCc1cc(-c2n[nH]c(C)c2-c2nc(C)cs2)c(O)cc1OC,-33.4%,"29.1 µM [falling, single point]","16.4 µM [falling, single point]"
N/C(=N\OC(=O)CCc1ccccc1)c1ccccc1Cl,35.3%,,"20.6 µM [rising, single point]"
O=S(=O)(c1cccc(Cl)c1)N1CCCC1,-156%,"6.51 µM [falling, single point]","6.51 µM [rising, single point]"
N#Cc1c(-c2ccccc2)cc(C2CC2)nc1N,-28.5%,,
O=C(CSCC(=O)NC1CCCC1)Nc1ccccc1,,"29.1 µM [rising, single point]",
Cc1c(-c2nc(-c3cccnc3)no2)cccc1[N+](=O)[O-],,"3.66 µM [falling, single point]","1.46 µM [falling, partial curve]"
O=S(=O)(NC1CCCCC1)c1cccc2nsnc12,31.5%,,"32.6 µM [rising, partial curve, poor fit]"
COc1cccc(Cn2c(N)c(C#N)c3nc4ccccc4nc32)c1OC,-37%,"32.6 µM [falling, single point]","6.51 µM [falling, partial curve, poor fit]"
O=C(NCc1ccncc1)c1cccc(S(=O)(=O)NCc2ccccc2)c1,20%,"6.51 µM [rising, full curve, poor fit]",

# Ordered by number of heavy atoms (falling): 6 of the compounds above
SMILES,cell number change,AC50 [1],AC50 [2]
COCc1c(C(=O)N/N=C(\C)c2ccc(Cl)s2)nnn1-c1nonc1N,-28.6%,,
COc1ccc(S(=O)(=O)c2nnn(-c3cccc(OC)c3)c2N)cc1,60.5%,,
Cc1c(-c2nc(-c3cccnc3)no2)cccc1[N+](=O)[O-],,"3.66 µM [falling, single point]","1.46 µM [falling, partial curve]"
Cc1ccc(NC(=O)CCn2nc(C)cc2C)cc1,55.1%,"29.1 µM [rising, single point]","29.1 µM [rising, single point]"
N#Cc1c(-c2ccccc2)cc(C2CC2)nc1N,-28.5%,,
O=S(=O)(c1cccc(Cl)c1)N1CCCC1,-156%,"6.51 µM [falling, single point]","6.51 µM [rising, single point]"

# The listing continues.

SMILES,cell number change,AC50 [1],AC50 [2]
CCCOc1ccccc1NC(=O)c1c(-c2ccccc2)noc1C,,"0.731 µM [falling, single point]",
COc1cccc(OC)c1C(=O)Nc1ccc(N2CCN(C(=O)c3cccs3)CC2)cc1,-12.2%,"1.84 µM [rising, partial curve]",
Cc1ccc(OCC(=O)N(Cc2cccs2)C2CCS(=O)(=O)C2)cc1 (stereo not given),-3.98%,"0.58 µM [rising, full curve, poor fit]","0.164 µM [rising, full curve, poor fit]"
COc1ccccc1C(=O)Nc1ccc2c(c1)CCCN2C(=O)c1ccccc1,-4.03%,"7.31 µM [falling, partial curve]",
Cc1ccc(S(=O)(=O)N2CCN(c3ccccc3)CC2)c(C)c1,,"0.731 µM [falling, single point]",
O=C(NCCCN1CCc2ccccc2C1)C1CCN(c2nnc(-n3cccc3)s2)CC1,0.801%,"0.0411 µM [rising, full curve, poor fit]",
c1coc(CN=C2NC(=NCc3ccco3)c3ccccc32)c1,-20.3%,"0.82 µM [rising, partial curve, poor fit]",
CCOC(=O)N1C(=O)C2(CCCCC2)N(c2ccccc2Cl)C1=S,-66.7%,,"29.1 µM [falling, single point]"
COc1ccc2[nH]c3c(c2c1)CCN1C(=O)N([C@@H](C)C(=O)NC2CC2)C(=O)[C@]31C,-4.53%,"29.1 µM [falling, single point]",
COC(=O)c1cc2ccsc2n1CC(=O)N(C)c1ccccc1,116%,,
COC(=O)c1ccc(S(=O)(=O)N2Cc3ccccc3C2)cc1,-27.7%,,
C=CCn1c(CNC(=O)c2ccco2)nnc1SCC(=O)c1ccc(F)cc1,-14.5%,,
Cc1ccc(CNC(=O)/C=C/c2ccc(S(=O)(=O)N3CCOCC3)cc2)cc1,20.3%,"1.64 µM [rising, full curve, poor fit]",
COc1ccc(CC(=O)O/N=C(\N)c2ccccn2)cc1OC,-7.8%,"29.1 µM [rising, single point]",
O=C(NC1CC1)C1CCN(C2CCN(C(=O)c3c(F)cccc3Cl)CC2)CC1,8.4%,"0.461 µM [falling, single point]",
CCc1nn2c(=O)cc(CSc3nc(C)cc(=O)[nH]3)nc2s1,18.4%,"29.1 µM [rising, single point]",
CCCCN(C(=O)c1ccc([N+](=O)[O-])o1)c1c(N)n(CCCC)c(=O)[nH]c1=O,-15%,"6.51 µM [falling, single point]","5.17 µM [falling, single point]"
OC(CSc1ccc(F)cc1)CN1CCN(c2ccccc2)CC1 (stereo not given),-37.6%,,"0.0058 µM [falling, full curve, poor fit]"
Cc1noc(C(=O)Nc2cccnc2)c1Cl,3.03%,"11.6 µM [rising, partial curve, poor fit]",
Cc1ccc(-c2cc(-c3ccccc3C)[nH]n2)c(O)c1,-62.4%,"4.61 µM [falling, partial curve]","4.11 µM [falling, partial curve]"
Cc1c(Cl)cccc1NC(=O)c1cccnc1,-1.84%,"29.1 µM [rising, single point]",

SMILES,cell number change,AC50 [1],AC50 [2]
O=C(N/N=C/C=C/c1ccco1)c1cccnc1,-4.18%,,"0.517 µM [falling, full curve, poor fit]"
Cc1nc2ccccc2c(N)c1C(=O)/C=C/c1ccccc1,,"18.4 µM [falling, partial curve]",
CCc1c(C)c2cc(Cl)c(O)c(CN3CCCC3)c2oc1=O,36.9%,"29.1 µM [rising, single point]",
O=c1[nH]c(NCc2ccco2)nnc1Cc1ccccc1Cl,70.1%,"29.1 µM [rising, single point]","18.4 µM [rising, single point]"
O=C(CCC(=O)NC1CCCCCC1)Nc1nnc(C(F)(F)F)s1,3.14%,,
C=CCn1c(SCC(=O)N2CCCCC2)nc(O)cc1=O,,"29.1 µM [falling, single point]",
Cc1ccc(-c2nn(C)c(=O)c3ccccc23)cc1S(=O)(=O)NCCN1CCOCC1,,,"0.366 µM [rising, single point]"
CC(C)(C)C(=O)Cn1c(=N)n(Cc2ccccc2Cl)c2ccccc21,59.4%,"13 µM [rising, partial curve]","13 µM [rising, partial curve]"
O=C(COc1ccc(S(=O)(=O)NCc2ccccc2)cc1Cl)NCc1ccccn1,-2.63%,"35.5 µM [rising, single point]",
COC(=O)c1c(-c2ccco2)csc1NC(=O)C1CC=CCC1C(=O)O (stereo not given),,"0.092 µM [falling, full curve, poor fit]",
CC(C)Cc1nc2oc3c(NCC4CCCO4)ncnc3c2c2c1CCC2 (stereo not given),-1.3%,"0.291 µM [rising, full curve]",
Cc1ccc(S(=O)(=O)CCC(=O)OCC(=O)NNC(=O)c2ccc([N+](=O)[O-])cc2)cc1,4.54%,"0.00517 µM [falling, full curve, poor fit]",
Cc1ccc(C(=O)Nc2ccncc2)cc1[N+](=O)[O-],-20.7%,,
COC(=O)c1ccc(CNC(=O)COc2ccccc2Br)o1,110%,,"18.4 µM [rising, partial curve]"
CC1CN(C(=O)c2cc3cc(Cl)ccc3[nH]2)CC(C)O1 (stereo not given),48.6%,,"1.84 µM [rising, full curve]"
Cc1ccc(NC(=O)Cn2ccc(=O)[nH]c2=O)cc1,11.8%,,"7.31 µM [rising, single point]"
Cc1sc(NC(=O)c2oc3ccccc3c2C)c(C#N)c1C,,"0.13 µM [rising, full curve, poor fit]",
CCn1c(CSc2nc3ccccc3s2)nnc1SCC(=O)NCC(=O)OC,,"29.1 µM [falling, single point]",
Cc1ccc(CN(C(=O)Cc2cccs2)C(C(=O)NC2CCCC2)c2ccncc2)cc1 (stereo not given),15.2%,"4.11 µM [rising, single point]",
CCN1CCc2nc3ccccc3c(C(=O)Nc3ccc(C#N)cc3)c2C1,4.34%,,
